Measured values published in publication PMC10163345.
Results are given in words; binding and its absence hold for the method and conditions named. In cells and extracts the contact can be indirect. These calls come from enrichment with a bait or labelling near it, and not all partners need be listed.

Protein sequences, listed by entry. Tags and fused reporters are not part of them.
UniProt Q9BYI3: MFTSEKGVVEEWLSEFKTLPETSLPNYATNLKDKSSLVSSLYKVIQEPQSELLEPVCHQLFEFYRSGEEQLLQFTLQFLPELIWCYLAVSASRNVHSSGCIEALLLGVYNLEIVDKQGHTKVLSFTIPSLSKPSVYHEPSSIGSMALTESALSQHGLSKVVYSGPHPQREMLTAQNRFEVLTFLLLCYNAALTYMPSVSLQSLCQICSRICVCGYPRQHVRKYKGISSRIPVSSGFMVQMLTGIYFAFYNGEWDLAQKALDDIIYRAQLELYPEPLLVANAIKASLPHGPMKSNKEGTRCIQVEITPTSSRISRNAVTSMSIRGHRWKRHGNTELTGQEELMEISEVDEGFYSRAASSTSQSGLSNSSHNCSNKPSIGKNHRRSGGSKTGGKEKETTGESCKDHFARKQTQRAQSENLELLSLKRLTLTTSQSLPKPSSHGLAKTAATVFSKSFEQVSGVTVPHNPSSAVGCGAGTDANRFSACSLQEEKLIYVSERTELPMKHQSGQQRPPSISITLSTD

Biological target: miniTurbo–3×FLAG fused to WT CNAα (calcineurin catalytic subunit alpha, PPP3CA) (human) (UniProt Q08209)
Test: proximity labelling; miniTurbo–3×FLAG–CNAα (WT or NIRmut) stably expressed in HEK293 Flp-In T-REx cells; 50 μM biotin for 15 min at 37°C; asynchronous, G1/S or mitotic cells; streptavidin purification, mass spectrometry (DDA and DIA), SAINT against miniTurbo–3×FLAG alone, BFDR≤0.01

FAM126A (from UniProt Q9BYI3 1-521)
binding: binds

PI4KA (from UniProt P42356 1-2102)
binding: binds
